Taken from: PubChem BioAssay AID743121 (NCATS, 2013)

- Test: 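Genes whose silencing strengthens cell killing by camptothecin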 (primary screen)
- Cell system: MDA-MB-231 cells, a human breast cancer line
- Reagents: single siRNA against human genes, 20 nM siRNA (0.8 pmol per well)
- Timing: 120 h (drug added 48 h after transfection, read 72 h later)
- Challenge: camptothecin 20 nM (about EC30) for 72 h; vehicle 0.1% DMSO in parallel plates
- Measured: 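CellTiter-Glo ATP signal, scaled to control siRNA as percent viability; sensitisation given as log2 of untreated divided by camptothecin-treated viability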
- Reading the numbers: log2 vehicle/camptothecin viability: higher = stronger sensitisation to camptothecin; viability with camptothecin: higher = more viable cells
- Hit rule: 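Active genes have an RSA gene-level p-value below 0.001, computed from the ratios of their separate siRNAs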
This is a random part of about 26,000 reagents. 167 of them (0.63%) were called active. 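Calls are per gene from RSA p-values that are not deposited; an individual active-marked siRNA can sensitise only weakly.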 A number with no mark means an inactive call. Reagents against one gene are numbered here. Further read-outs or replicates are left out here. No sequences are given here.

gene knocked down | reagent no. | log2 vehicle/camptothecin viability | viability with camptothecin (% of control)
LARS2 (GeneID 23395) | 1 | -0.0772 | 50.8
LARS2 (GeneID 23395) | 2 | -0.576 | 69.2
LARS2 (GeneID 23395) | 3 | 0.892 | 25.3
LARS2 (GeneID 23395) | 4 | -0.0815 | 43.2
DHRS2 (GeneID 10202) | 1 | -0.0208 | 19.5
DHRS2 (GeneID 10202) | 2 | -0.207 | 68.4
DHRS2 (GeneID 10202) | 3 | -0.148 | 80.7
DHRS2 (GeneID 10202) | 4 | -0.0319 | 88.9
PLXDC1 (GeneID 57125) | 1 | -0.0284 | 78.9
PLXDC1 (GeneID 57125) | 2 | -0.287 | 72.3
PLXDC1 (GeneID 57125) | 3 | -0.312 | 117
PLXDC1 (GeneID 57125) | 4 | 0.291 | 60.4
GALR3 (GeneID 8484) | 1 | -0.479 | 63
GALR3 (GeneID 8484) | 2 | -0.35 | 32.7
GALR3 (GeneID 8484) | 3 | -0.288 | 93.4
GALR3 (GeneID 8484) | 4 | -0.299 | 116
XRCC6 (GeneID 2547) | 1 | 0.934 | 14.7
XRCC6 (GeneID 2547) | 2 | -0.0916 | 72
XRCC6 (GeneID 2547) | 3 | -0.211 | 46.4
XRCC6 (GeneID 2547) | 4 | 0.0743 | 90.3
FZD4 (GeneID 8322) | 1 | -0.0871 | 79.7
FZD4 (GeneID 8322) | 2 | -0.395 | 82.7
FZD4 (GeneID 8322) | 3 | -0.503 | 90.8
FZD4 (GeneID 8322) | 4 | -0.284 | 84.4
PSMB10 (GeneID 5699) | 1 | 0.494 | 35.8
PSMB10 (GeneID 5699) | 2 | -0.697 | 54.6
PSMB10 (GeneID 5699) | 3 | -0.554 | 66.1
PSMB10 (GeneID 5699) | 4 | -0.124 | 42.7
IKBKG (GeneID 8517) | 1 | -0.285 | 105
IKBKG (GeneID 8517) | 2 | 0.358 | 26.5
IKBKG (GeneID 8517) | 3 | -0.0054 | 82.2
IKBKG (GeneID 8517) | 4 | -0.731 | 87.7
ZNF596 (GeneID 169270) | 1 | -0.304 | 95.4
ZNF596 (GeneID 169270) | 2 | -0.226 | 20.3
ZNF596 (GeneID 169270) | 3 | -0.161 | 109
ZNF596 (GeneID 169270) | 4 | 0.266 | 72.6
RNF111 (GeneID 54778) | 1 | -0.186 | 56.1
RNF111 (GeneID 54778) | 2 | -0.389 | 80.9
RNF111 (GeneID 54778) | 3 | -0.121 | 73.2
RNF111 (GeneID 54778) | 4 | 0.0199 | 89.1
HEY2 (GeneID 23493) | 1 | -0.164 | 75.3
HEY2 (GeneID 23493) | 2 | 0.258 | 89
HEY2 (GeneID 23493) | 3 | -0.436 | 30.8
HEY2 (GeneID 23493) | 4 | 0.116 | 95
HSD17B11 (GeneID 51170) | 1 | -0.169 | 87.5
HSD17B11 (GeneID 51170) | 2 | 0.199 | 86.7
HSD17B11 (GeneID 51170) | 3 | -0.0427 | 114
HSD17B11 (GeneID 51170) | 4 | -0.143 | 98.9
HSD17B11 (GeneID 51170) | 5 | -0.238 | 52.1
HSD17B11 (GeneID 51170) | 6 | 0.231 | 72.9
HSD17B11 (GeneID 51170) | 7 | -0.127 | 108
HSD17B11 (GeneID 51170) | 8 | -0.132 | 91
RGS4 (GeneID 5999) | 1 | 0.237 | 74.4
RGS4 (GeneID 5999) | 2 | 0.319 | 67.3
RGS4 (GeneID 5999) | 3 | -0.453 | 54.8
HEY1 (GeneID 23462) | 1 | -0.103 | 94.2
HEY1 (GeneID 23462) | 2 | -0.0756 | 97.8
HEY1 (GeneID 23462) | 3 | 0.0373 | 98
HEY1 (GeneID 23462) | 4 | 0.667 | 20.9
ALOXE3 (GeneID 59344) | 1 | 0.556 | 39.3
ALOXE3 (GeneID 59344) | 2 | -0.167 | 108
ALOXE3 (GeneID 59344) | 3 | -0.323 | 124
ALOXE3 (GeneID 59344) | 4 | 0.0288 | 36.3
KCNC2 (GeneID 3747) | 1 | 0.58 | 75.5
KCNC2 (GeneID 3747) | 2 | 0.0254 | 96
KCNC2 (GeneID 3747) | 3 | 0.0607 | 84.5
TRIB1 (GeneID 10221) | 1 | -0.193 | 18.9
TRIB1 (GeneID 10221) | 2 | 0.0351 | 70.5
TRIB1 (GeneID 10221) | 3 | -0.247 | 75.4
TRIB1 (GeneID 10221) | 4 | -0.405 | 11.8
TRIB1 (GeneID 10221) | 5 | -0.193 | 52.6
